For 34 sequences, binding signal results are on record in publication PMC7862700.

By UniProt entry, the sequences of proteins in these tests, tags left out. Where a name states a change or a piece, a line headed by the entry shows the natural chain unless it says otherwise.
UniProt Q00613: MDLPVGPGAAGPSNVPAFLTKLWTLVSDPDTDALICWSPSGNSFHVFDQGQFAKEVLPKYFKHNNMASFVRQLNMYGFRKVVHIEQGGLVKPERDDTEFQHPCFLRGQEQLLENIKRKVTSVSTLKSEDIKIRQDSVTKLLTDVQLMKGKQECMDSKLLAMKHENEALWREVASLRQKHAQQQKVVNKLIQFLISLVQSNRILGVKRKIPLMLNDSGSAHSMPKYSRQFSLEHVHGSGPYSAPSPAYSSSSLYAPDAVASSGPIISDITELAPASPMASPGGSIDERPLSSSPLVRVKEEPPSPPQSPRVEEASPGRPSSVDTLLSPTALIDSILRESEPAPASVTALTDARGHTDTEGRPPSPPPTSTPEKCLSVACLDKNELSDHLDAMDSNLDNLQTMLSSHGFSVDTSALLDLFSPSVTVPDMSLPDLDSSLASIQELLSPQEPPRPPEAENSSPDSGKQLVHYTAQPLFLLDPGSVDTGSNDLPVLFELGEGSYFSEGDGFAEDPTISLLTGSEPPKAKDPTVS

This is a selection; strong and weak results do not stand in their true shares. For some assays here: At the low end of the ranking, values are background and their order means little. The list shows a part of the results. For some assays here: The exact form of the protein is not confirmed.

One assay concerns the target HSF1 (UniProt Q00613). As to the kind of experiment: DAPPL (digital affinity profiling via proximity ligation, sequencing). To be noted: 10 mM Tris-HCl pH 7.5, 50 mM NaCl, 1 mM DTT, 4% glycerol, room temperature, 30 min; GST-TFs on glutathione beads, 16-mer random dsDNA library, 0.1% …; high values mean tight binding; double strand, one strand shown; scale: fold enrichment (6-mer frequency, TF over GST control).

A further assay concerns the target T1, ELF2 (UniProt Q15723).
T1 sequence: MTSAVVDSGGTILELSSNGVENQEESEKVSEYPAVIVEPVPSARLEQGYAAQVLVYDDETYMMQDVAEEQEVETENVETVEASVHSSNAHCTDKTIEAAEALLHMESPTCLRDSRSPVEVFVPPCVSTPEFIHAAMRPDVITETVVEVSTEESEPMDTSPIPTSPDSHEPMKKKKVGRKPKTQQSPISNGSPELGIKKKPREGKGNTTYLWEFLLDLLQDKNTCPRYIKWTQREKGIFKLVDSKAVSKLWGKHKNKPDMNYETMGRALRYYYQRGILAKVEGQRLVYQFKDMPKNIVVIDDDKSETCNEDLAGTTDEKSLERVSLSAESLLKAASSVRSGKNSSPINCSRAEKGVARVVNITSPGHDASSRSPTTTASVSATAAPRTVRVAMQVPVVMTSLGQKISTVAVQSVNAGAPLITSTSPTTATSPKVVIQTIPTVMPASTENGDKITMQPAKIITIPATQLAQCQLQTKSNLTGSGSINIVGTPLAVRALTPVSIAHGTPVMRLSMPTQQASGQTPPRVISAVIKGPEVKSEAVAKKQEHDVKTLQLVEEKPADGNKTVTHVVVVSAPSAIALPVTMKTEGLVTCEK
The assay is described as above. To be noted: 10 mM Tris-HCl pH 7.5, 50 mM NaCl, 1 mM DTT, 4% glycerol, room temperature, 30 min; GST-TFs on glutathione beads, 16-mer random dsDNA library, 0.1% …; high values mean tight binding; double strand, one strand shown; scale: fold enrichment (6-mer frequency, TF over GST control).

In the case of TACGAT, the binding signal with HSF1 was found to be 1.13; with ELF2, 1.06.
The corresponding values for AATTGG are 1.2 and 1.35.
Turning to GCTGTA, the binding signal in the assay with HSF1 is 1; with ELF2, 1.11.
In the assay with ELF2, ATGAAA displayed a binding signal of 1.15.
As for ATCCCT, the results for the binding signal with HSF1 and in the assay with ELF2 were 1.64 and 1.21, respectively.
GAAAAG: the binding signal with HSF1 was 1.22; with ELF2 it was 1.08.
TATTGG: in the assay with ELF2, the binding signal is 1.14.
With CTCTGA, the binding signal with HSF1 was determined as 1.06; with ELF2, 1.09.
In the assay with ELF2, CTAGGT returned a binding signal of 1.03.
Consider TTGGCC, for which the figures for the binding signal with HSF1 and in the assay with ELF2 were 0.987 and 1.02, respectively.
As to TCGTTC, the binding signal came out at 1.39 with HSF1 and 1.26 with ELF2.
Regarding CTATCT, the binding signal with HSF1 came out at 1.4; in the assay with ELF2, 1.29.
TTTGGT returned a binding signal with ELF2 of 1.29.
For CTCTTC, the binding signal in the assay with ELF2 was 2.1.
In the assay with ELF2, TTGCCT showed a binding signal of 1.22.
TTAACA: the binding signal came out at 1.65 in the assay with HSF1 and 1.14 in the assay with ELF2.
In the assay with ELF2, TGACGA gave a binding signal of 1.03.
Consider CACTTA, for which the binding signal in the assay with HSF1 came out at 1.26; with ELF2, 1.2.
The corresponding values for ATCATT are 1.18 and 1.
Turning to ACCTCG, in the assay with ELF2, the binding signal came out at 1.05.
TAGTAA: the binding signal with HSF1 was 1.54; in the assay with ELF2, 1.03.
On to TCACAG, for which the binding signal amounted to 0.985 in the assay with HSF1 and 1.06 in the assay with ELF2.
Turning to GTCTAC, the results for the binding signal with HSF1 and in the assay with ELF2 were 0.838 and 1.07, respectively.
With TTTTGT, the binding signal with HSF1 amounted to 1.27; with ELF2 it was 1.35.
For the sequence GTCTCA, the results for the binding signal with HSF1 and in the assay with ELF2 were 1.01 and 1.25, respectively.
With CGCCTC, the binding signal with ELF2 amounted to 1.36.
On to TCATGC, for which the values for the binding signal with HSF1 and with ELF2 were 0.983 and 1.11, respectively.
With GATGAT, the binding signal with ELF2 was determined as 1.3.
On the same count and under the same terms, to ATCGTC belongs 0.984; to ATTGAT, 1.3.
Take ACCACT: the binding signal in the assay with HSF1 came to 0.982; in the assay with ELF2, 1.3.
For ATCACT, in the assay with ELF2, the binding signal stood at 1.28.
Sequence GATGCT came in with a binding signal in the assay with ELF2 of 1.21.
Consider TTGCTA, for which, in the assay with ELF2, the binding signal came out at 1.21.
